Measured values: paper PMC10154249, “Unique progerin C-terminal peptide ameliorates Hutchinson–Gilford progeria syndrome phenotype by rescuing BUBR1” (Nature Aging, 2023)

System: progerin
Experiment: MS analysis of progerin-binding proteins
Details: Fig. 4e; sequence coverage of interacting protein

B1: LaminB2 (protein)
chain: MSPPSPGRRREQRRPRAAATMATPLPGRAGGPATPLSPTRLSRLQEKEELRELNDRLAHYIDRVRALELENDRLLLKISEKEEVTTREVSGIKALYESELADARRVLDETARERARLQIEIGKLRAELDEVNKSAKKREGELTVAQGRVKDLESLFHRSEVELAAALSDKRGLESDVAELRAQLAKAEDGHAVAKKQLEKETLMRVDLENRCQSLQEELDFRKSVFEEEVRETRRRHERRLVEVDSSRQQEYDFKMAQALEELRSQHDEQVRLYKLELEQTYQAKLDSAKLSSDQNDKAASAAREELKEARMRLESLSYQLSGLQKQASAAEDRIRELEEAMAGERDKFRKMLDAKEQEMTEMRDVMQQQLAEYQELLDVKLALDMEINAYRKLLEGEEERLKLSPSPSSRVTVSRATSSSSGSLSATGRLGRSKRKRLEVEEPLGSGPSVLGTGTGGSGGFHLAQQASASGSVSIEEIDLEGKFVQLKNNSDKDQSLGNWRIKRQVLEGEEIAYKFTPKYILRAGQMVTVWAAGAGVAHSPPSTLVWKGQSSWGTGESFRTVLVNADGEEVAMRTVKKSSVMRENENGEEEEEEAEFGEEDLFHQQGDPRTTSRGCYVM
- Coverage (mass spectrometry assays of the interacting proteins of progerin): 4.35%
